This data set has as its system ABLE. The experiment in a line: Crystallographic fragment screening of ABLE crystals (PanDDA). Type of data set: binding. As to conditions: fragment soaked (10 mM) into ABLE crystals, refined multi-state model.
In the case of `O=C(O)C(c1ccccc1)c1ccccc1` [ZINC000000034687], the Refined ligand occupancy was determined as 82%. The same measure for `O=C(O)c1cc2ccccc2o1` [ZINC000000053963]: 22%; for `O=c1ccc2ccc(O)cc2o1` [ZINC000000058111, 7-hydroxycoumarin]: 52%.

Consider `Oc1ccc(-n2ccnc2)cc1` [ZINC000000066090], for which the Refined ligand occupancy stood at 38%. The same measure for `Cl.NCCc1c[nH]c2ccc(F)cc12` [ZINC000000077278]: 36%. The molecule `O=C(O)c1cc2sccc2s1` [ZINC000000107891] gave a Refined ligand occupancy of 34%. The same measure for `CCOC(=O)c1c(C)n[nH]c1C` [ZINC000000109930]: 82%. The same measure for `O=C(O)CCc1ccccc1` [ZINC000000154564]: 40%; for `Cc1c(C(=O)O)cnn1-c1ccccc1` [ZINC000000158815]: 86%. For the molecule `Cn1ncc(C(=O)O)c1-c1ccccc1` [ZINC000000159056], the Refined ligand occupancy worked out at 36%.

`Nc1ccc2c(c1)S(=O)(=O)C=C2` [ZINC000000162015] returned a Refined ligand occupancy of 62%.

Regarding `Cc1cc(C)nc(N)n1` [ZINC000000163774], the Refined ligand occupancy stood at 22%. The same measure for `Oc1ccc2c(c1)OCO2` [ZINC000000164504]: 76%; for `Nc1ccc(F)cc1C(=O)O` [ZINC000000165667]: 48%; for `O=C1CCc2cccc3c2N1CC3` [ZINC000000173360]: 16%. `COc1ccc(S(N)(=O)=O)cc1` [ZINC000000270975] had a Refined ligand occupancy of 84%.

`O=C(O)c1ccc(Br)cc1` [ZINC000000388063] gave a Refined ligand occupancy of 40%. The molecule `Nc1cc(F)ccc1C(=O)O` [ZINC000000389796] had a Refined ligand occupancy of 90%.

For the molecule `CCc1ccc(S(N)(=O)=O)cc1` [ZINC000000403990], the Refined ligand occupancy was determined as 62%.

Molecule `O=C(O)Cc1c[nH]c2ccc(Br)cc12` [ZINC000000404314] showed a Refined ligand occupancy of 48%. `Nc1ccc2oc(=O)ccc2c1` [ZINC000001612349] had a Refined ligand occupancy of 42%. The same measure for `Cc1ccccc1S(N)(=O)=O` [ZINC000002567980]: 26%. `NS(=O)(=O)c1ccc(F)cc1` [ZINC000002571408] gave a Refined ligand occupancy of 44%. The same measure for `O=C(c1ccncc1)c1ccc(F)cc1` [ZINC000002583439]: 24%; for `CCCc1ccc(S(N)(=O)=O)cc1` [ZINC000002941706]: 76%. As to `O=C(O)CCc1nc2cc(Cl)ccc2s1` [ZINC000004219237], the Refined ligand occupancy worked out at 40%.

Molecule `OCc1cccc2c1OCCO2` [ZINC000004271832] showed a Refined ligand occupancy of 72%. Consider `Nc1nc2ccc(Br)cc2s1` [ZINC000004774482], for which the Refined ligand occupancy was 42%. `O=C1CNc2ccc(C(F)(F)F)cc2N1` [ZINC000006657973]: the Refined ligand occupancy turned out to be 74%. The same measure for `O=c1ccc2ccccc2[nH]1` [ZINC000008579298]: 42%; for `Nc1cccc(Oc2ccccn2)c1` [ZINC000012370416]: 46%.

On to `N#CCc1c[nH]c2ccc(Cl)cc12` [ZINC000016697555], for which the Refined ligand occupancy came out at 70%. As for `Cc1ccc2c(C(=O)O)c[nH]c2c1` [ZINC000020269197], the figure is 95%; as for `Cc1cc(CO)c2ccccc2n1` [ZINC000037405164], 38%. The molecule `O=C(O)c1cc2cc(Cl)sc2[nH]1` [ZINC000038866729] gave a Refined ligand occupancy of 28%.

In turn, `NS(=O)(=O)c1ncc[nH]1` [ZINC000039132637] yielded a Refined ligand occupancy of 32%. Turning to `FC(F)(F)c1ccc(OC2CCNCC2)nc1` [ZINC000042783023], the Refined ligand occupancy is on record as 48%. `O=C1CSc2cc(C(=O)O)ccc2N1` [ZINC000098208711] returned a Refined ligand occupancy of 24%.

For the origin of these results see article doi:10.1101/2025.01.30.635804, “Emergence of specific binding and catalysis from a designed generalist binding protein” (bioRxiv, 2025).
